# Some of the results follow.
# Chains of the proteins cited; added tags and fusions are not shown.
# UniProt Q0JBA9, entry or part of it: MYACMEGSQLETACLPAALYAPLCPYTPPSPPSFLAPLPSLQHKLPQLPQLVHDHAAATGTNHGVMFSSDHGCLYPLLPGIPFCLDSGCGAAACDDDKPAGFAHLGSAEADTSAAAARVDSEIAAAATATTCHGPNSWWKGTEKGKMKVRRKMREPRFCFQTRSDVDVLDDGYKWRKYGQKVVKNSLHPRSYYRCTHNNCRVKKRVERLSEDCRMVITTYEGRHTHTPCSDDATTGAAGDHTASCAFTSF
# Molecular target: OsWRKY34 (Oryza sativa, UniProt Q0JBA9 1-250)
# Assay: protein-binding microarray (RPBM); PBS, 2% BSA, 51.3 ng/ul salmon testes DNA, 50 uM zinc acetate, 200 nM TF, 25 C, 1 h; high values mean tight binding
# Conditions: protein: recombinant; tags: N-terminal polyhistidine and DsRed monomer fusion (pET32a); label: CyDye5-dUTP incorporated in the synthesized complementary strand; 3' TTTTT single-stranded linker to array surface; dsDNA, one strand shown
# Summary of the method: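 The binding signal is fluorescence intensity per array feature (arbitrary units). Readings came from an Axon 4000B scanner after a washed, 2% BSA-blocked, double-stranded custom Agilent array had been incubated for 1 h at 25 °C with 200 nM protein and 50 µM zinc acetate. The protein was a Ni–NTA-purified transcription factor fused N-terminally to polyhistidine and DsRed, expressed in E. coli BL21-CodonPlus.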
row,Sequence,binding signal
1,CACTTTTTATTCAGTCACTATCCTTGTGTGCTGTAATTATCGGAGTCACCTAGTGCAG,10700 fluorescence intensity (a.u.)
2,CCCTCCCCTCTGCTTCCGTTCCCTTGGGTTGGGTTGTGTTCGGAGTCACCTAGTGCAG,8480 fluorescence intensity (a.u.)
3,CCGCTGCCACCGCTCCTCCTAAGCTCGCCCGCCGCATCCGCGGAGTCACCTAGTGCAG,8790 fluorescence intensity (a.u.)
4,GCCGTTGTCCGAAGGTTCAGCATATTGCTGACATATTGCCCGGAGTCACCTAGTGCAG,9380 fluorescence intensity (a.u.)
5,TTGTTGGTAGTCCCTTGCTTCTATATTTCTATTTTACCTTCGGAGTCACCTAGTGCAG,11200 fluorescence intensity (a.u.)
6,GCTCTGAACATGGACTGCGCTAATACTACTCCATGCACAACGGAGTCACCTAGTGCAG,9240 fluorescence intensity (a.u.)
7,CCTCCTGTCACATACAAAAATATCGAATTTTTATACTATCCGGAGTCACCTAGTGCAG,8690 fluorescence intensity (a.u.)
8,TCGACTTTGATTTGTACGATTGATTCCTTGAGTATATGTTCGGAGTCACCTAGTGCAG,8540 fluorescence intensity (a.u.)
9,GTTTTGCATTCTTTTGTTCATGACTGTGATGTACACTTGTCGGAGTCACCTAGTGCAG,9580 fluorescence intensity (a.u.)
10,ATAAGTTTAAGGACCGCCAATGCACTTTACTCTATTTTGACGGAGTCACCTAGTGCAG,9350 fluorescence intensity (a.u.)
11,TAAATTTTCCCCACTTTCTCTCCTCTCCTTTTCTTCTCTCCGGAGTCACCTAGTGCAG,10000 fluorescence intensity (a.u.)
12,ATTTTTTTTTTCGGTCGTCCAATTATTTCAGTGTACTTTTCGGAGTCACCTAGTGCAG,8310 fluorescence intensity (a.u.)
13,CTACACAGCAAAACATCATCGGCTTCCGCCCTTGCACACTCGGAGTCACCTAGTGCAG,10700 fluorescence intensity (a.u.)
14,ATCGTCTCTCCTTGTAGGCTAGCTGCTATACGAGAGCATGCGGAGTCACCTAGTGCAG,9980 fluorescence intensity (a.u.)
15,GCGCTGGCTCCCATGGATTCTCATATCGTCTTGCCCTCCGCGGAGTCACCTAGTGCAG,13200 fluorescence intensity (a.u.)
16,GCAAACTTCCACACCACCACGCCATCACCACCTCCACACCCGGAGTCACCTAGTGCAG,11700 fluorescence intensity (a.u.)
17,TGGGGCGGCAGGGTCTATTTTTGTAATTTTTTTGGCCGATCGGAGTCACCTAGTGCAG,9050 fluorescence intensity (a.u.)
18,AATTTCCTGGGCACCGCCTGCCTACACAACGACTGGTGACCGGAGTCACCTAGTGCAG,9050 fluorescence intensity (a.u.)
19,CCATCACCACCTCCCGATCCGCGCGCTTTCTCTCCCGCGCCGGAGTCACCTAGTGCAG,9090 fluorescence intensity (a.u.)
20,TCTTCCCTTGACTCCTCTTCTCCTCTCTTTCTCTCTCCTTCGGAGTCACCTAGTGCAG,11200 fluorescence intensity (a.u.)
21,ATCACTACTAGATCAGCACTCCATCAGCTAAGGTCTTTTTCGGAGTCACCTAGTGCAG,8860 fluorescence intensity (a.u.)

row,Sequence,binding signal
1,ACACATCATGAGTTTCTACAATTTTTTTTGTTCCCGCCCCCGGAGTCACCTAGTGCAG,8960 fluorescence intensity (a.u.)
2,CTATAATTCTTGCATATTTTCTGCCATTTTGTTCGAATTACGGAGTCACCTAGTGCAG,12600 fluorescence intensity (a.u.)
3,TGCTTGGCGTGAGTGCGTCACTTTTTTCGGTTCTTTTCCCCGGAGTCACCTAGTGCAG,8150 fluorescence intensity (a.u.)
4,CTCTCACTGTTTATCAAGCTTCAATTCTACATTTATTGTTCGGAGTCACCTAGTGCAG,10200 fluorescence intensity (a.u.)
5,AGTGCTGAACTATGAGTCTCACTATTTTGTTTCGATTTTTCGGAGTCACCTAGTGCAG,8220 fluorescence intensity (a.u.)
6,GATTGATGCTAGTGGTGCTTTGGTGTTGTGAAATGTAGCCCGGAGTCACCTAGTGCAG,9350 fluorescence intensity (a.u.)
7,GCTCCAACTAATACAGTTTCAGTTCAACCAGTCCAATGCACGGAGTCACCTAGTGCAG,9020 fluorescence intensity (a.u.)
8,AATCTTGTCTCTGCAGGCCGCCGGCGGGTGGGGAGGAGGCCGGAGTCACCTAGTGCAG,11200 fluorescence intensity (a.u.)
9,AAATGTGCTAAAAAGTCAACGGTGTCAAACATTTCGAAATCGGAGTCACCTAGTGCAG,16400 fluorescence intensity (a.u.)
10,GTGTTTTGTTTTTGGCAGTAGGTGCTTGCTATCTTTTCATCGGAGTCACCTAGTGCAG,10100 fluorescence intensity (a.u.)
11,CACACACACACCACCCACATTGAGCCAATTTCCTTCTCCTCGGAGTCACCTAGTGCAG,8660 fluorescence intensity (a.u.)
12,ATTTTAATTTTTTTCCGTTGACTGAAATTGAAGACAGTAACGGAGTCACCTAGTGCAG,8150 fluorescence intensity (a.u.)
13,AAAGCCGTCGTATTGTCATCCGCCGCTCGCTGACTCATTCCGGAGTCACCTAGTGCAG,8310 fluorescence intensity (a.u.)
14,GTCTTCCCGTGTCATCGTCGCCGTCATACACGCCAGCCCGCGGAGTCACCTAGTGCAG,9580 fluorescence intensity (a.u.)
15,TAGGCTTCAACTTTCAACCGAACTCACCTGCCCTAATTTGCGGAGTCACCTAGTGCAG,11100 fluorescence intensity (a.u.)
16,CTCTCACACATTCACAGCGCAGACCACACACGATCTCACTCGGAGTCACCTAGTGCAG,9800 fluorescence intensity (a.u.)
17,TCACTAGTTCTTCTCGTCGTCCTCGGGCGGGCAGAGGTTCCGGAGTCACCTAGTGCAG,8110 fluorescence intensity (a.u.)
18,CACTTCGTCGCTCACTCGCTTGTAGTCTCCAGCCACACAACGGAGTCACCTAGTGCAG,11900 fluorescence intensity (a.u.)
19,ATGCCTCCTGCTGCCTTATGATCTGGTTTGAATGGTTTTGCGGAGTCACCTAGTGCAG,8200 fluorescence intensity (a.u.)
20,TCATCTCGTCGCCATTGACAGACTAGCGCCGGCCTGTCCACGGAGTCACCTAGTGCAG,8940 fluorescence intensity (a.u.)
21,TTCACCCCTTGATCCAACGGCTTTTAATTGGTTTTACAGTCGGAGTCACCTAGTGCAG,9490 fluorescence intensity (a.u.)

# 7 entries from above, with tabs.
row	Sequence	binding signal
4	CTCTCACTGTTTATCAAGCTTCAATTCTACATTTATTGTTCGGAGTCACCTAGTGCAG	10200 fluorescence intensity (a.u.)
5	AGTGCTGAACTATGAGTCTCACTATTTTGTTTCGATTTTTCGGAGTCACCTAGTGCAG	8220 fluorescence intensity (a.u.)
6	GATTGATGCTAGTGGTGCTTTGGTGTTGTGAAATGTAGCCCGGAGTCACCTAGTGCAG	9350 fluorescence intensity (a.u.)
7	GCTCCAACTAATACAGTTTCAGTTCAACCAGTCCAATGCACGGAGTCACCTAGTGCAG	9020 fluorescence intensity (a.u.)
8	AATCTTGTCTCTGCAGGCCGCCGGCGGGTGGGGAGGAGGCCGGAGTCACCTAGTGCAG	11200 fluorescence intensity (a.u.)
9	AAATGTGCTAAAAAGTCAACGGTGTCAAACATTTCGAAATCGGAGTCACCTAGTGCAG	16400 fluorescence intensity (a.u.)
10	GTGTTTTGTTTTTGGCAGTAGGTGCTTGCTATCTTTTCATCGGAGTCACCTAGTGCAG	10100 fluorescence intensity (a.u.)

# Carrying on.

row,Sequence,binding signal
1,AACAATAACGTTTCAATATTTCTTTCGTTTATACCATTAACGGAGTCACCTAGTGCAG,11400 fluorescence intensity (a.u.)
2,ACTTATTTTCTCACTTTGCTGCAACGGTTTTTATGGCACGCGGAGTCACCTAGTGCAG,8580 fluorescence intensity (a.u.)
3,TTAGCACATGTTTGACCGTTCGTCTTATTCAAAATTTTTTCGGAGTCACCTAGTGCAG,12600 fluorescence intensity (a.u.)
4,CAATCTATTATTCAACATTTGGGGACACAAATTATGTCGTCGGAGTCACCTAGTGCAG,8080 fluorescence intensity (a.u.)
5,ATGGCTTCCTTGTATATCTTGGTCTTCTTTCTGTATTCGTCGGAGTCACCTAGTGCAG,11600 fluorescence intensity (a.u.)
6,AATTTTGCCGCCAGCCCATTCCACTACCTAACCATCTCTTCGGAGTCACCTAGTGCAG,8400 fluorescence intensity (a.u.)
7,ATATTCTTTTTGGTTTGGATGGTTTTTTTTTTATAGATCTCGGAGTCACCTAGTGCAG,12600 fluorescence intensity (a.u.)
8,AAATCCCACGCACAAGTCGTCGCGGGCGTTCTATACTTCTCGGAGTCACCTAGTGCAG,8700 fluorescence intensity (a.u.)
9,TCCATCCAGGGAAAGGGTAGGGGAAGGTGGCAATGAGGATCGGAGTCACCTAGTGCAG,9820 fluorescence intensity (a.u.)
10,TTAGTGTTACCGCCTTATCTTTTCGTTTATACTTTGAATTCGGAGTCACCTAGTGCAG,11700 fluorescence intensity (a.u.)
11,TTTATCGTTTAATTGGGTCCTGTAGTACATCAATCTTGTCCGGAGTCACCTAGTGCAG,8670 fluorescence intensity (a.u.)
12,CTAACGCGGACGCCCATCTCCACCGTCCGATCTCGCCACTCGGAGTCACCTAGTGCAG,10300 fluorescence intensity (a.u.)
13,TCACAACACATGTTCAGTATCTTGTTTATCTGGATTAAAACGGAGTCACCTAGTGCAG,10400 fluorescence intensity (a.u.)
14,TGCATGATTTGTTTCAGCGAGTTTCCTGGTAACTTTTCCACGGAGTCACCTAGTGCAG,8210 fluorescence intensity (a.u.)
15,ACGTGGATTTAGCCTAAAAGTGGTAATTGCTGATTATTCCCGGAGTCACCTAGTGCAG,8110 fluorescence intensity (a.u.)
16,GGTGGATCCATACTACTGCGTTGCTGGCCTTGTTTCATTCCGGAGTCACCTAGTGCAG,9470 fluorescence intensity (a.u.)
17,ACGTATGCTGATCATCCTCTTTCTCTAAAATATATATTTACGGAGTCACCTAGTGCAG,8330 fluorescence intensity (a.u.)
18,AGATTCACTTGACCCACACAGCACACATACACATACTGACCGGAGTCACCTAGTGCAG,8440 fluorescence intensity (a.u.)
19,TCACCAACCCGACGTGGCCGCTCTTCCACGTCAACATCCTCGGAGTCACCTAGTGCAG,8820 fluorescence intensity (a.u.)
20,CCATTTATGCCGTCCTTGGGCCTTACGGAAACTTAAAAATCGGAGTCACCTAGTGCAG,8750 fluorescence intensity (a.u.)
21,GTTCAGTTAAGACGTACGTCTGTGGAAATAAACTTATTTTCGGAGTCACCTAGTGCAG,10100 fluorescence intensity (a.u.)

row,Sequence,binding signal
1,ACCTGTTCTCTGTCCAAATTAGCAGACATATTTTTTTTAACGGAGTCACCTAGTGCAG,9080 fluorescence intensity (a.u.)
2,AAATTTTGTTATTTCTACCCATTACTTGTTTCAAATTGTTCGGAGTCACCTAGTGCAG,8560 fluorescence intensity (a.u.)
3,TTCATTGTTAAATATACTTTCATGTACACATATAGTTTTACGGAGTCACCTAGTGCAG,9420 fluorescence intensity (a.u.)
4,TACTCTCTCTGTCCCCTTTTGTTTTTTTTCCTGTATACTGCGGAGTCACCTAGTGCAG,8690 fluorescence intensity (a.u.)
5,GATTCCGTAGTCGTCGTCATCAGTAGTCTATCGATTTTGCCGGAGTCACCTAGTGCAG,9800 fluorescence intensity (a.u.)
6,GCCCGTGTCTTGTGTGTTTCCGCTCTTGCGAACCTTCCACCGGAGTCACCTAGTGCAG,13900 fluorescence intensity (a.u.)
7,TGCCTTCTGAGTTCTGAAACGTTGTATCCATGTGAAATTTCGGAGTCACCTAGTGCAG,8710 fluorescence intensity (a.u.)
8,GCCAAGTGACAATCTAAAATCTATCCATTGATTTTCTTTTCGGAGTCACCTAGTGCAG,8100 fluorescence intensity (a.u.)
9,GGTCCCGTTCCGATCCTCACTCGGTCACTCATCTTTCCTTCGGAGTCACCTAGTGCAG,8730 fluorescence intensity (a.u.)
10,GGGGAGTCGTTCTAACCGGTTTTCTGGTTGAGGGGTACAACGGAGTCACCTAGTGCAG,13500 fluorescence intensity (a.u.)
11,TATTTCTTGGCCATACTTTTGCCACATGCCACAACTTACCCGGAGTCACCTAGTGCAG,10500 fluorescence intensity (a.u.)
12,GAGGAATTCTTCCAGTAGTATCGGCCATTTCCCCTACTTTCGGAGTCACCTAGTGCAG,10000 fluorescence intensity (a.u.)
13,CCGCTGCTTCTCCTGTTCGTCTCCTTTCTCAGTAACTGCACGGAGTCACCTAGTGCAG,8180 fluorescence intensity (a.u.)
14,GCACTTGACTTGCGTGGACTCCAACTTCCCATTTTACCCCCGGAGTCACCTAGTGCAG,9840 fluorescence intensity (a.u.)
15,GGAGTCAGGGGTGGTTCGGCCTCTCATCACCGACCTTCACCGGAGTCACCTAGTGCAG,9490 fluorescence intensity (a.u.)
16,AATCCATCATTAGTAAATGTTTACTGTAGCACCATATTGTCGGAGTCACCTAGTGCAG,8850 fluorescence intensity (a.u.)
17,TTTATTTGCACTGTTTGACCATTCGTATTATTCAAAATTTCGGAGTCACCTAGTGCAG,9990 fluorescence intensity (a.u.)
18,ATGCCCTGTTACCTGTGTGTGATTTCTTTGTGCTCCATAACGGAGTCACCTAGTGCAG,17600 fluorescence intensity (a.u.)
19,CGGCGTCTCCCAATCCGTGTCAGCCACATCGCCCCTTAATCGGAGTCACCTAGTGCAG,8640 fluorescence intensity (a.u.)
20,TTAATAAGACAAACGGTCAACATATTTGAAAAAGTCAACGCGGAGTCACCTAGTGCAG,12700 fluorescence intensity (a.u.)
21,TAACTATGGGCCTGTTCACTTTAATGCCATTTTTAACCTTCGGAGTCACCTAGTGCAG,8390 fluorescence intensity (a.u.)

# — article PMC7819943, “Rice protein-binding microarrays: a tool to detect cis-acting elements near promoter regions in rice”
